Data as given in PubChem BioAssay AID1259308 (NCATS, 2017)
Purpose: 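Candidate targets for better recombinant protein yield in mammalian cells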 (primary screen). System: human HEK293 embryonic kidney cells stably expressing firefly luciferase (HEK-CMV-Luc2-Hygro). Knock-down reagent: single siRNA against human genes, 0.8 pmol siRNA per well. Duration: 72 h. Measured: 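Luciferase light (ONE-Glo) measured on one replicate plate set and viability (CellTiter-Glo) on the other, scaled to a negative control siRNA, with robust z-scores and luciferase per cell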. Direction: total luciferase, z-score: higher = more reporter protein produced. Rule for the call: 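An siRNA counts as active if its total luciferase robust z-score exceeds 3; genes with two or more such siRNAs out of three were retested with fresh siRNAs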. Calls: active = raised luciferase; inactive = no rise.
In all, the deposit lists about 59,000 reagents; below is an unselected part. Of all reagents, about 1,510 (2.6%) are marked active. 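Calls use total luciferase alone and ignore viability, so some active siRNAs may act by altering cell number.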 A number with no mark means an inactive call. The numbers tell different reagents against one gene apart. Not all columns of the deposit are shown.

After knock-down of MTUS1 (GeneID 57509) #1, the screen gave total luciferase, z-score 0.424.
MTUS1 (GeneID 57509) #2 scored total luciferase, z-score 0.54.
After knock-down of MTUS1 (GeneID 57509) #3, the record shows total luciferase, z-score -0.524.
After knock-down of MAGEA4 (GeneID 4103) #1 the results were total luciferase, z-score 1.73.
For MAGEA4 (GeneID 4103) #2 the deposit lists total luciferase, z-score -2.39.
MAGEA4 (GeneID 4103) #3 showed total luciferase, z-score 0.516.

An excerpt taken from the entries so far:
MTUS1 (GeneID 57509) #3 → total luciferase, z-score = -0.524
MAGEA4 (GeneID 4103) #1 → total luciferase, z-score = 1.73

More entries follow:
HIGD1A (GeneID 25994) #1 scored total luciferase, z-score 2.35.
HIGD1A (GeneID 25994) #2 gave total luciferase, z-score -0.367.
Knock-down of HIGD1A (GeneID 25994) #3 resulted in: total luciferase, z-score 1.97.
Against ZCCHC24 (GeneID 219654) #1, the entry reads total luciferase, z-score -0.63.
Depletion of ZCCHC24 (GeneID 219654) #2 resulted in: total luciferase, z-score 1.42.
For ZCCHC24 (GeneID 219654) #3, the entry reads total luciferase, z-score -0.881.
